Earlier results in paper PMC6974622, “DeepMalaria: Artificial Intelligence Driven Discovery of Potent Antiplasmodials” (Frontiers in Pharmacology, 2020).

Test system: 3D7
Parameters: unit not given here
Details: cited from earlier work

Compound: COc1ccc(CC(C)NCC(O)c2ccc(O)c(NC=O)c2)cc1 (stereo not shown) [Formoterol]
- 3D7: 61.6
